The source of these data is publication PMC9943664.

The chains behind the UniProt entries cited, without tags or fusion partners.
UniProt P60842: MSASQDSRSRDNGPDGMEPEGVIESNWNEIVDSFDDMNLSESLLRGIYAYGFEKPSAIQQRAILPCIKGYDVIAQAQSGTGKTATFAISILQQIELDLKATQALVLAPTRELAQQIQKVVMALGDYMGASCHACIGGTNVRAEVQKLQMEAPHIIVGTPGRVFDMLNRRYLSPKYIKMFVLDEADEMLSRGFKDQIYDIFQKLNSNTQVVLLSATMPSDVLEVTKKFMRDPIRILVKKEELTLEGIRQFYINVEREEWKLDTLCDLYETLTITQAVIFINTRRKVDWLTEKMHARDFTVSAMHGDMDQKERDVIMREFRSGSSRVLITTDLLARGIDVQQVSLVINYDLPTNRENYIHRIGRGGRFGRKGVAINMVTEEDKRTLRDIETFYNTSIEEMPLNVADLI
UniProt O00571: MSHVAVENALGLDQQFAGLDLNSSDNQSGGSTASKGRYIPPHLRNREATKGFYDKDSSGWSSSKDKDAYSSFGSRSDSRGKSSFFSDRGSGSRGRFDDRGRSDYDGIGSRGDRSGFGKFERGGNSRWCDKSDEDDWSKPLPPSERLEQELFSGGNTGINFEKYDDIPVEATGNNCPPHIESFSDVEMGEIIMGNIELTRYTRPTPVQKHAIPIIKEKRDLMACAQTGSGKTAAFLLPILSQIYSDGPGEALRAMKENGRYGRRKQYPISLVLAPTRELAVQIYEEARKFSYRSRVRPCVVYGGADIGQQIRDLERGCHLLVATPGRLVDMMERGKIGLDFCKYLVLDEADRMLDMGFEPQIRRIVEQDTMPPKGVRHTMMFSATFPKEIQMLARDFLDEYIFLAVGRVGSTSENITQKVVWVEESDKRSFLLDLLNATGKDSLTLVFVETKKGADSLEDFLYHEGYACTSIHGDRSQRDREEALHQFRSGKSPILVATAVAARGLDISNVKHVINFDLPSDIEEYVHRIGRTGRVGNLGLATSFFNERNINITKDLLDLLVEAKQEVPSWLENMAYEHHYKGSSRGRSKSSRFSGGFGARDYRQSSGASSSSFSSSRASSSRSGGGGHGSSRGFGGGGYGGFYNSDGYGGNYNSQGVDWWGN
UniProt Q13283: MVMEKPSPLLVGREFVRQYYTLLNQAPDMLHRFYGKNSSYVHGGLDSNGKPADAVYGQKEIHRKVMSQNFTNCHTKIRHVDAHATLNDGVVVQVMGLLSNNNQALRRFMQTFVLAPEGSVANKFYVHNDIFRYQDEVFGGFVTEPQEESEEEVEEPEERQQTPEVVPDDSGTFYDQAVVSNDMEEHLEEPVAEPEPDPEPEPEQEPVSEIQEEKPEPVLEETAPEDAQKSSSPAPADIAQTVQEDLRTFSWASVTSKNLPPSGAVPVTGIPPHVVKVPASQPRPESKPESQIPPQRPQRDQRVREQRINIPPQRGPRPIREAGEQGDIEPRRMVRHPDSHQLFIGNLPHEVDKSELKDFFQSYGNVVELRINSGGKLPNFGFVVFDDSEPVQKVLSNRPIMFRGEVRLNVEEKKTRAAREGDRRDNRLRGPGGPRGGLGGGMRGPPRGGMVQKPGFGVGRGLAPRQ

Results are given in words; binding and its absence hold for the method and conditions named. Binding seen in cells or lysates may run through a third protein. Some entries that bind do so weakly or less than the wild type.

In test [1] the target is eIF4A1 (human (endogenous in HeLa)) (UniProt P60842). Put plainly: co-IP; immunoprecipitation of endogenous eIF4A1 (4 ug antibody on Dynabeads Protein A, 2 h at 4°C) from SG core-enriched fractions of HeLa cells exposed to As[III] (0.5 mM, 1 h; with or without recovery in fresh medium); western blotting. Background: In western blotting, separated proteins are transferred to a membrane and probed.

Test [2] concerns the target DDX3X (human (endogenous in HeLa)) (UniProt O00571). Put plainly: co-IP; reciprocal immunoprecipitation of endogenous DDX3X (4 ug antibody on Dynabeads Protein A, 2 h at 4°C) from SG core-enriched fractions of HeLa cells acutely exposed to As[III] (0.5 mM, 1 h); western blotting.

On to G3BP1 (from UniProt Q13283 1-466), for which, in test [1], the binding result is “binds”.

B1: DDX1 (protein, UniProt Q92499 1-740)
chain: MAAFSEMGVMPEIAQAVEEMDWLLPTDIQAESIPLILGGGDVLMAAETGSGKTGAFSIPVIQIVYETLKDQQEGKKGKTTIKTGASVLNKWQMNPYDRGSAFAIGSDGLCCQSREVKEWHGCRATKGLMKGKHYYEVSCHDQGLCRVGWSTMQASLDLGTDKFGFGFGGTGKKSHNKQFDNYGEEFTMHDTIGCYLDIDKGHVKFSKNGKDLGLAFEIPPHMKNQALFPACVLKNAELKFNFGEEEFKFPPKDGFVALSKAPDGYIVKSQHSGNAQVTQTKFLPNAPKALIVEPSRELAEQTLNNIKQFKKYIDNPKLRELLIIGGVAARDQLSVLENGVDIVVGTPGRLDDLVSTGKLNLSQVRFLVLDEADGLLSQGYSDFINRMHNQIPQVTSDGKRLQVIVCSATLHSFDVKKLSEKIMHFPTWVDLKGEDSVPDTVHHVVVPVNPKTDRLWERLGKSHIRTDDVHAKDNTRPGANSPEMWSEAIKILKGEYAVRAIKEHKMDQAIIFCRTKIDCDNLEQYFIQQGGGPDKKGHQFSCVCLHGDRKPHERKQNLERFKKGDVRFLICTDVAARGIDIHGVPYVINVTLPDEKQNYVHRIGRVGRAERMGLAISLVATEKEKVWYHVCSSRGKGCYNTRLKEDGGCTIWYNEMQLLSEIEEHLNCTISQVEPDIKVPVDEFDGKVTYGQKRAAGGGSYKGHVDILAPTVQELAALEKEAQTSFLHLGYLPNQLFRTF
B1: the binding result in test [2] and in test [1] was “binds” throughout.
